This passage reports binding results from patent publication US20220098310A1 (Alexion, published 2022).

These are yes or no findings as the source states them, for the method shown. Some results given as binding are weak or reduced against the parent protein; the word gives no strength.

This experiment concerns the target T1, recombinant human ALK2 extracellular domain (Creative Biomart catalog number ACVR1-01H) (human) (UniProt Q04771).
T1 sequence: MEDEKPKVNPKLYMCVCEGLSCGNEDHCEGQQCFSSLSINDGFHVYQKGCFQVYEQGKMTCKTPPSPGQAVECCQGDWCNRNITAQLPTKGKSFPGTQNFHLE
The experiment in a line: surface plasmon resonance (Biacore), normalised overlaid sensorgrams, captured antibody, 250 nM ALK2 ECD (ACVR1) injected. A general note: SPR reads the build-up and loss of mass on a sensor chip optically.

B1: JAB0501 (antibody, mouse IgG1, kappa, V domains shown)
VH: EVQLQQSGAELVRPGASVRLSCTASGFNIKDSLMHWVKQRPEQGLEWIGWIDPEDGETKYAPNFQSKATITAVTSSNTAYLQLSSLTSEDSAIYYCARYTSPYYTMDYWGQGTSVTVSS
VL: DIQMTQSPASQSASLGESVTFTCLASQTIGTWLAWYQQKPGKSPQLLIYAATSLADGVPSRFSGSGSGTKFSFKISSLQAEDFASYYCQQVYSTPWTFGGGTKLEIKR
On to B1, for which the binding entry is recorded as “binds”.

B2: JAB0505 (antibody, mouse IgG1, kappa, V domains shown)
VH: EVQLQQSGAELVRPGASVRLSCTASGFNIKDSLMHWVKQRPEQGLEWIGWIDPEDGETRYAPNFQDKATITAVTSSNTAYLQLSSLTSEDSAIYYCARYTSRYYTMEYWGQGTSVTVSS
VL: DIQMTQSPASQSASLGESVTFTCLASQTIGTWLAWYQQKPGKSPQLLIYAATSLADGVPSRFSGSGSGTKFSFKISSLQAEDFASYYCQQLYWTPWTFGGGTKLEIKR
notes: also called antibody JAB0505
Regarding B2, the binding result is listed as “binds”.
